The target in assay [1] is T1, integrin α4β1 (mouse) (mouse (endogenous in murine CD11b+ myeloid cells)) (UniProt Q00651+P09055). Kind of assay: co-IP; integrin α4β1 precipitated with rat anti-mouse integrin α4 (PS2) and protein G Dynabeads from 1% CHAPS lysates (1 mg protein) of murine CD11b+ myeloid cells treated with Lewis lung carcinoma conditioned medium (TCM) or basal medium for 20 min at 37 °C; immunoblot for integrin α4, paxillin, talin.

Protein sequences, listed by entry. Tags and fused reporters are not part of them. Lines headed by an entry give the natural chain unless they say otherwise; changes in a name come on top.
UniProt Q00651: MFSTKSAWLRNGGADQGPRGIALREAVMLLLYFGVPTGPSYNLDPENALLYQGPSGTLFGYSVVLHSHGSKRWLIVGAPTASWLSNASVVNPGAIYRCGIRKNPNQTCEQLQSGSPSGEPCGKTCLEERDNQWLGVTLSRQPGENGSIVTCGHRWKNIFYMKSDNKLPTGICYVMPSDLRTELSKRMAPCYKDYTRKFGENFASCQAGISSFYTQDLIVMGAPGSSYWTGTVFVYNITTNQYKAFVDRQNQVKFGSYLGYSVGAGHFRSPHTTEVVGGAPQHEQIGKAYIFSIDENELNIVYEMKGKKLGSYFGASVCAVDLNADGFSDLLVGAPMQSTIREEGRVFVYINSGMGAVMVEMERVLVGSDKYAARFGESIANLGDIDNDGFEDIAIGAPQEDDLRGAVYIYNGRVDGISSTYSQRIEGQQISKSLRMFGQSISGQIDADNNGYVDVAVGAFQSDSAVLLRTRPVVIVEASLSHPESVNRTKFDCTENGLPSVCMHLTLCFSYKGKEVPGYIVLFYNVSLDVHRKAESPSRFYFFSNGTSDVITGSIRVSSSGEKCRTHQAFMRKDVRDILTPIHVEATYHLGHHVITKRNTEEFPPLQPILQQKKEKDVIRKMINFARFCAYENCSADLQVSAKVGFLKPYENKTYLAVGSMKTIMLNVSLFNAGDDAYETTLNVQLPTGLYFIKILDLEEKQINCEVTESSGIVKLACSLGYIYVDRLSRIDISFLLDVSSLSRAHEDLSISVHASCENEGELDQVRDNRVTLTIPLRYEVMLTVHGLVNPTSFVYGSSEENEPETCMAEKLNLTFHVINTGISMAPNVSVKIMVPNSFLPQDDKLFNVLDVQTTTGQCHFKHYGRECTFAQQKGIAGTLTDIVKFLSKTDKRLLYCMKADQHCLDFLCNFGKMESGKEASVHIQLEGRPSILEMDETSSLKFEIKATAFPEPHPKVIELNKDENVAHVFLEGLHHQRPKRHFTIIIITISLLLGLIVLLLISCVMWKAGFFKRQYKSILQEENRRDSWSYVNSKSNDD
UniProt P09055: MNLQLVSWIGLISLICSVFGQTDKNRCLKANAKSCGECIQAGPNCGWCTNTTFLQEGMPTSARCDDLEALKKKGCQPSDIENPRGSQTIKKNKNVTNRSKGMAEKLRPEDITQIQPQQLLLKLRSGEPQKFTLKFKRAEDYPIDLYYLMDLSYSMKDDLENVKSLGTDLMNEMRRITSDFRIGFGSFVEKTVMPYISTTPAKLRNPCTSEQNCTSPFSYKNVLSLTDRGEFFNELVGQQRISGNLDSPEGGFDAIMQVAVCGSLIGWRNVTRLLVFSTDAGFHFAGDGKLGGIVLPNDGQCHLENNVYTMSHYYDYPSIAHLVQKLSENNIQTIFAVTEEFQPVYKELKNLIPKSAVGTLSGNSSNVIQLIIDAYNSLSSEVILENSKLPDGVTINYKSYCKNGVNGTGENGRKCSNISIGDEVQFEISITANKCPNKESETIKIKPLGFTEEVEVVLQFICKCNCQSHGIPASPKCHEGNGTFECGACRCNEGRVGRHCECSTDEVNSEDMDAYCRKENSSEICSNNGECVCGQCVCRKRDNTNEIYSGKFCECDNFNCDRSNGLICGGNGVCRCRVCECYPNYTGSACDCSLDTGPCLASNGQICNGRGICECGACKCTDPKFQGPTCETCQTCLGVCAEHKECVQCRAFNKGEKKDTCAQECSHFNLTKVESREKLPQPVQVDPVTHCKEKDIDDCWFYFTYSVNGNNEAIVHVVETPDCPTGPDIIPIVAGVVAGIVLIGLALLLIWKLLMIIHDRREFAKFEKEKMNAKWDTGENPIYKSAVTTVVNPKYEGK
UniProt P13612: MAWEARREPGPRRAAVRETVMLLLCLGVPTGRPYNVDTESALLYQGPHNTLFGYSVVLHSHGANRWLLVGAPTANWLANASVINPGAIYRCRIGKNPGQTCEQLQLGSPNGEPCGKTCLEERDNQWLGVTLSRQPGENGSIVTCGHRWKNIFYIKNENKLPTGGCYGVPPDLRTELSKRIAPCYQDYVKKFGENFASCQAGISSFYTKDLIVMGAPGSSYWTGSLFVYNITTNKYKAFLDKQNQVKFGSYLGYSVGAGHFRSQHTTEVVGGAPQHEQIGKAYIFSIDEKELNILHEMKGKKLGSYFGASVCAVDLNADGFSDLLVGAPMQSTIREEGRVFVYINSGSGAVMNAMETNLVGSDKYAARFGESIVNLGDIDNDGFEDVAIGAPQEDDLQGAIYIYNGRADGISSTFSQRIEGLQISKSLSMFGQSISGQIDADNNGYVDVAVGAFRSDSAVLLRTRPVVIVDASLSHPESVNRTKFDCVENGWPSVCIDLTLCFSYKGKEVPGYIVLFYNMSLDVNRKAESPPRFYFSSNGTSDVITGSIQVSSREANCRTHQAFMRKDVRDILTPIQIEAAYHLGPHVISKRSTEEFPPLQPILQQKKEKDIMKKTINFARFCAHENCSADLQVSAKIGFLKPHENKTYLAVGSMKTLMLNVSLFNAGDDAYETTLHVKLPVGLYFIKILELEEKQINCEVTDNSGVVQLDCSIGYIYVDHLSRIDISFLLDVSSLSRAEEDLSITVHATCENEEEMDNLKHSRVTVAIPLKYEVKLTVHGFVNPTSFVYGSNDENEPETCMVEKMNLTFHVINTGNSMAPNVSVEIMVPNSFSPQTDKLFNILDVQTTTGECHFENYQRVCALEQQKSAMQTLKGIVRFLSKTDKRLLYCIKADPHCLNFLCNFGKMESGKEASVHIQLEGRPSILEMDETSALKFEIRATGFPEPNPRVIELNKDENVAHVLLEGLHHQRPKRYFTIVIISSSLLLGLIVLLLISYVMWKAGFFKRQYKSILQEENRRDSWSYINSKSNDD
UniProt P05556: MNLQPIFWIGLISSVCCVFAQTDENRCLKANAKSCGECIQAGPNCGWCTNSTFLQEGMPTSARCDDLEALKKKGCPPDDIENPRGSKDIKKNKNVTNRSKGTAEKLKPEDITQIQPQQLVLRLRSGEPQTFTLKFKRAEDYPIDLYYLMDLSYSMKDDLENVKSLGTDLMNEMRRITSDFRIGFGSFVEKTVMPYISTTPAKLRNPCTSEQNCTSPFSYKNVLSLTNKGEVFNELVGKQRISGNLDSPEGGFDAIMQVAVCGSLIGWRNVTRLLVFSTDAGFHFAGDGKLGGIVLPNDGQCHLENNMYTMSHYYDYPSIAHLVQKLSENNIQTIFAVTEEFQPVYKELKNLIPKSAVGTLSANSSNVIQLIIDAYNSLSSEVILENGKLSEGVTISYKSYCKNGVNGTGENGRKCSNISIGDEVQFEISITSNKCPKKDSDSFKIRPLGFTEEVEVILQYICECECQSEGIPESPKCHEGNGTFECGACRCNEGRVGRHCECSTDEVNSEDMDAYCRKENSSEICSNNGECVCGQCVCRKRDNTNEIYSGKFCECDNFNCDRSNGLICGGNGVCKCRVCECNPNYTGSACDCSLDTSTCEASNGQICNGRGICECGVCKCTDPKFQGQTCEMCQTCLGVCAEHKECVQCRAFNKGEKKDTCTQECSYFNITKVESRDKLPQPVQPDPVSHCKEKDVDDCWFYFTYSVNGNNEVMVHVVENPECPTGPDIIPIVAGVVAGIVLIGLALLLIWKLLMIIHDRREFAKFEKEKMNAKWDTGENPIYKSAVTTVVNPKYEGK
UniProt Q8VI36: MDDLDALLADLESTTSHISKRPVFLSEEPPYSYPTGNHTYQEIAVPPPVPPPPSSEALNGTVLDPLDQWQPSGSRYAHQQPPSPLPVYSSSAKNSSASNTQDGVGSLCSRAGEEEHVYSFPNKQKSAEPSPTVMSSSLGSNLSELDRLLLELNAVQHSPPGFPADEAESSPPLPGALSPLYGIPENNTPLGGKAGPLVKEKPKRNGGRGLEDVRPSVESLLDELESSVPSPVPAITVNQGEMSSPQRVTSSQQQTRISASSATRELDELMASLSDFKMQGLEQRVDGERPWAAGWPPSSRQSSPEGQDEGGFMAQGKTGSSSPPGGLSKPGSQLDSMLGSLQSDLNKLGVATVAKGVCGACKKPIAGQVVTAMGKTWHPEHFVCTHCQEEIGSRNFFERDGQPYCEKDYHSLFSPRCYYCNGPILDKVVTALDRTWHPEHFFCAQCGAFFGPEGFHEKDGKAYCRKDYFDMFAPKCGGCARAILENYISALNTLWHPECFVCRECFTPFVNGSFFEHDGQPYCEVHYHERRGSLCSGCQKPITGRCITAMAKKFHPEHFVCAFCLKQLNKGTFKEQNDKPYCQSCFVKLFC

For assay [2], the target named is T1, integrin α4β1 (mouse) (mouse (endogenous in murine CD11b+ myeloid cells)). The assay can be described thus: condition: only Myh9 siRNA-transfected cells stimulated with SDF-1α; 1 mg/ml VCAM-1/Fc; flow cytometry on cells; as a4, but Myh9 siRNA-transfected murine myeloid cells, stimulated with SDF-1α; only the binder purified.
Assay [3] concerns the target integrin α4β1 (human) (human (endogenous in peripheral blood CD11b+ myeloid cells)) (UniProt P13612+P05556). The assay can be described thus: flow cytometry on cells; human peripheral blood CD11b+ myeloid cells, vehicle or MLCK inhibitor (MW01-022AZ, ML-7), stimulated with IL-1β, SDF-1α, VEGF-A or Mn2+, incubated with recombinant VCAM-1-Fc and anti-Fc fluorochrome-conjugated antibody; mean fluorescence intensity; only the binder purified. In general terms: A flow cytometer gives signals particle by particle.

The target of assay [4] is T1, integrin α4β1 (mouse) (mouse (endogenous in murine CD11b+ myeloid cells)). Kind of assay: flow cytometry on cells; murine CD11b+ myeloid cells (WT, vehicle or control siRNA) incubated with 200 ng/ml IL-1β, SDF-1α, IL-6, TNFα, VEGF-A or with Mn2+ together with 1 mg/ml mouse VCAM-1/human-Fc; detected with donkey anti-human-Fc antibody; mean fluorescence intensity; only the binder purified.

The target is the same in assay [5]. The assay can be described thus: condition: only Mlck210−/−, Mylk siRNA-transfected or MW01-022AZ-treated cells, cytokine/chemokine-stimulated; 1 mg/ml VCAM-1/Fc; flow cytometry on cells; as a4, but Mlck210−/−, Mylk siRNA-transfected or MW01-022AZ-treated murine myeloid cells, stimulated with cytokine/chemokine; only the binder purified.

Results are given in words; binding and its absence hold for the method and conditions named. For some assays here: Binding seen in cells or lysates may run through a third protein. Some entries that bind do so weakly or less than the wild type. For some assays here: Tags and fused reporters may be left off the sequences shown.

As to paxillin (from UniProt Q8VI36 1-591), the binding entry in assay [1] was “binds”.

B1: mouse VCAM-1/human-Fc fusion protein (Fc fusion, UniProt P29533 25-698)
chain: FKIEISPEYKTIAQIGDSMALTCSTTGCESPLFSWRTQIDSPLNAKVRTEGSKSVLTMEPVSFENEHSYLCTATCGSGKLERSIHVDIYSFPKDPEIQFSGPLEVGKPVTVKCLAPDIYPVYRLEIDLFKGDQLMNRQEFSSEEMTKSLETKSLEVTFTPVIEDIGKALVCRAKLHIDQIDSTLKERETVKELQVYISPRNTTISVHPSTRLQEGGAVTMTCSSEGLPAPEIFWGRKLDNEVLQLLSGNATLTLIAMRMEDSGVYVCEGVNLIGRDKAEVELVVQEKPFIVDISPGSQVAAQVGDSVVLTCAAIGCDSPSFSWRTQTDSPLNGVVRNEGAKSTLVLSSVGFEDEHSYLCAVTCLQRTLEKRTQVEVYSFPEDPVIKMSGPLVHGRPVTVNCTVPNVYPFDHLEIELLKGETTLMKKYFLEEMGIKSLETKILETTFIPTIEDTGKSLVCLARLHSGEMESEPKQRQSVQPLYVNVAPKETTIWVSPSPILEEGSPVNLTCSSDGIPAPKILWSRQLNNGELQPLSENTTLTFMSTKRDDSGIYVCEGINEAGISRKSVELIIQVSPKDIQLTVFPSKSVKEGDTVIISCTCGNVPETWIILKKKAKTGDMVLKSVDGSYTIRQAQLQDAGIYECESKTEVGSQLRSLTLDVKGKEHNKDYFSPE
B1: the binding result is recorded as “no binding” in assay [2], “binds” in assay [3], “binds” in assay [4] and “no binding” in assay [5].

(Values after PMC8975949.)
